These are yes or no findings as the source states them, for the method shown. Binding seen in cells or lysates may run through a third protein. Some results given as binding are weak or reduced against the parent protein; the word gives no strength. Where a sequence is shown, tags or fusion partners need not be part of it.
Columns and labels:
[1] = target: T1, EGFP-BBS1(WT) (human) (UniProt Q8NFJ9); test: co-IP; VIP assay and immunoblotting; EGFP-BBS1 construct and tRFP-ARL6∆N15(Q73L) co-expressed in HEK293T with tBFP-BBS9
T1 sequence: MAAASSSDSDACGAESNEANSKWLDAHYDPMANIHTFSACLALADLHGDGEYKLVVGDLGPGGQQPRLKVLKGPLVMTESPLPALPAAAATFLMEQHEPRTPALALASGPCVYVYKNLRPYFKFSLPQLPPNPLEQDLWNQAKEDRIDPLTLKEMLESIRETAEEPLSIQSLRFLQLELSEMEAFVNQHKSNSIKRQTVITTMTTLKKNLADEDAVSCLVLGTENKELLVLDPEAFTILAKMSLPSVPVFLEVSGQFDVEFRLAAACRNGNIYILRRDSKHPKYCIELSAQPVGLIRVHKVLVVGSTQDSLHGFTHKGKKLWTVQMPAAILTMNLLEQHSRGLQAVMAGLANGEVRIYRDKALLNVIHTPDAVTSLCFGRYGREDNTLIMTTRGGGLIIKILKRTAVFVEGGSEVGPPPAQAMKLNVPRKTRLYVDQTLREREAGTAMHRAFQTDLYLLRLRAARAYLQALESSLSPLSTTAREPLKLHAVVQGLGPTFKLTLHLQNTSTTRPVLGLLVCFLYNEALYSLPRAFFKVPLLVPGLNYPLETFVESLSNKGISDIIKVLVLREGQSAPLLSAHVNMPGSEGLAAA

[2] = target: T1, EGFP-BBS1(WT) (human); test: co-IP; VIP assay and immunoblotting; EGFP-BBS1 construct and tRFP-ARL6∆N15(Q73L) co-expressed in HEK293T with tRFP-fused BBS9 (WT construct or CT region)
[3] = target: T1, EGFP-BBS1(WT) (human); test: co-IP; VIP assay (confocal microscopy of beads); EGFP-BBS1 construct and tRFP-ARL6∆N15(Q73L) co-expressed in HEK293T with tBFP fusions of the other core subunits (BBS2/BBS7/BBS9)
[4] = target: T1, EGFP-BBS1(WT) (human); test: co-IP; VIP assay (confocal microscopy of beads); EGFP-BBS1 construct and tRFP-ARL6∆N15(Q73L) co-expressed in HEK293T with tBFP fusions of all the other BBSome subunits (BBS2/BBS4/BBS5/BBS7/BBS8/BBS9/BBS18)
[5] = target: T1, EGFP-BBS1(WT) (human); test: co-IP; VIP assay: lysates of HEK293T cells co-expressing an EGFP-fused and an mChe- or tRFP-fused protein (HMDEKN buffer: 10 mM HEPES pH 7.4, 5 mM MgSO4, 1 mM DTT, 0.5 mM EDTA, 25 mM KCl, 0.5% NP-40); EGFP fusion precipitated with GST-anti-GFP nanobody on glutathione-Sepharose beads; beads read by fluorescence microscopy and, for some pairs, by immunoblotting

Measured: binding

B1: tRFP-fused ARL6∆N15(Q73L) (domain or fragment, UniProt Q9H0F7 16-186)
chain: KEVHVLCLGLDNSGKTTIINKLKPSNAQSQNILPTIGFSIEKFKSSSLSFTVFDMSGLGRYRNLWEHYYKEGQAIIFVIDSSDRLRMVVAKEELDTLLNHPDIKHRRIPILFFANKMDLRDAVTSVKVSQLLCLENIKDKPWHICASDAIKGEGLQEGVDWLQDQIQTVKT
binds: all assays above
